Three substances from PMC10603047 can be followed below.

Chains of the proteins cited; added tags and fusions are not shown.
UniProt P19474: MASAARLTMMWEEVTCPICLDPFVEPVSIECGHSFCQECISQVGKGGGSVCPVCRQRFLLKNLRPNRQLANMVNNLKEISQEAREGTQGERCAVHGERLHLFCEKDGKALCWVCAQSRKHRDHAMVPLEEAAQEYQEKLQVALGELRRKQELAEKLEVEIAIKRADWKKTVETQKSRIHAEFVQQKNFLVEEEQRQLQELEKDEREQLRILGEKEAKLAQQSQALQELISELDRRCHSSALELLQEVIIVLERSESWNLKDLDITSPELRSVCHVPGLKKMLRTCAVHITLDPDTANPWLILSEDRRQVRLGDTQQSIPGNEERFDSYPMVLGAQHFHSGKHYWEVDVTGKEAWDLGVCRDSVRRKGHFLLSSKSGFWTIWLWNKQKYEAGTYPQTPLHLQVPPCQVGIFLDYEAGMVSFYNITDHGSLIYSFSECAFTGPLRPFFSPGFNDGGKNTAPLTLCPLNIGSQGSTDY
UniProt P46938: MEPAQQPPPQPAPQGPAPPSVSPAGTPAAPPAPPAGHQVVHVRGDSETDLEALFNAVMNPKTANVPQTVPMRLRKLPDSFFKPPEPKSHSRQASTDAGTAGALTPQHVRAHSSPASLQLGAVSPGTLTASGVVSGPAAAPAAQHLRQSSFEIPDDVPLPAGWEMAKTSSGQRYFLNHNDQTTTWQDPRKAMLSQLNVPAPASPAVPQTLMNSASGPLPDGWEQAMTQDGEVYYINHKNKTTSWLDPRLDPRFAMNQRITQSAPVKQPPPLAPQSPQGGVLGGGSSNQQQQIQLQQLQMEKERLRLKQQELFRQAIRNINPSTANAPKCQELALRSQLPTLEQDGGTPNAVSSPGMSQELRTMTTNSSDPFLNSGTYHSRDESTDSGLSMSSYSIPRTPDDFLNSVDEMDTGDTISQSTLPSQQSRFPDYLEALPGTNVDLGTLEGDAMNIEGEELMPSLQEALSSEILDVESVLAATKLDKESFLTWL
UniProt P46937: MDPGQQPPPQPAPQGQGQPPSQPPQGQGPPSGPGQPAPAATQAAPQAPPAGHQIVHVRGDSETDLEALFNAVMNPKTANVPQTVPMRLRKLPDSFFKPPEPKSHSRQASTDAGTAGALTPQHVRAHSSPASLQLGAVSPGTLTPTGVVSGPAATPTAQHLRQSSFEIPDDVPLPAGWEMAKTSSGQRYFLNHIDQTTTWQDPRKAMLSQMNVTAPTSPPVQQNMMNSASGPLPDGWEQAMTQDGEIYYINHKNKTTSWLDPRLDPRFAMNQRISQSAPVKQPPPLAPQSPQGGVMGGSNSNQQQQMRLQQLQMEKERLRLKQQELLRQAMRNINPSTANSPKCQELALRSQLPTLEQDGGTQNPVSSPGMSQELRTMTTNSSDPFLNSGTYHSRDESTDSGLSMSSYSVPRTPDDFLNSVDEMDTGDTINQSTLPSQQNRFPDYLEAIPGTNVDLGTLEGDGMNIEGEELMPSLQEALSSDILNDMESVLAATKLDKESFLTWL
UniProt Q02248: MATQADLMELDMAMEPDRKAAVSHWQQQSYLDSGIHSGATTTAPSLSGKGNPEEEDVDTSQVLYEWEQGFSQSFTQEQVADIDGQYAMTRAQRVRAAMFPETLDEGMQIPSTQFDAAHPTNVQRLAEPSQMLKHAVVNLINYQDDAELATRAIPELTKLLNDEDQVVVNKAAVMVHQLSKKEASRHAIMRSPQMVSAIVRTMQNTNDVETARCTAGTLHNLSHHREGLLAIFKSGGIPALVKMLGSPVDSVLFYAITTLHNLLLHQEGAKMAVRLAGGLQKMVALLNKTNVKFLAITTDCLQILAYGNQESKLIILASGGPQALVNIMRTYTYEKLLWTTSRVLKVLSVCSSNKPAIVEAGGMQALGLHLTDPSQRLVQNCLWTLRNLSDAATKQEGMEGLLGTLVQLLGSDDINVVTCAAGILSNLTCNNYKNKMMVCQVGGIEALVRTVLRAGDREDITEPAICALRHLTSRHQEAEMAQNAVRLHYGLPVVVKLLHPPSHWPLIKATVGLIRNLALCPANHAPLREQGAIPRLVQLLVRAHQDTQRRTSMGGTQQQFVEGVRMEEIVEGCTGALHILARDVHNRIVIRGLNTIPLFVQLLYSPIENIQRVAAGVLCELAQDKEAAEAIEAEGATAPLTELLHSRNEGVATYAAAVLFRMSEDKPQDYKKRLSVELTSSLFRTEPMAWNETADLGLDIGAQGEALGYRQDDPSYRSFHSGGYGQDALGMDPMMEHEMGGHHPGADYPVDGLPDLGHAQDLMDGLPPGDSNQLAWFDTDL

In assay [1] the target is T1, Trim21 (mouse (endogenous in MC3T3-E1)) (UniProt Q62191).
T1 sequence: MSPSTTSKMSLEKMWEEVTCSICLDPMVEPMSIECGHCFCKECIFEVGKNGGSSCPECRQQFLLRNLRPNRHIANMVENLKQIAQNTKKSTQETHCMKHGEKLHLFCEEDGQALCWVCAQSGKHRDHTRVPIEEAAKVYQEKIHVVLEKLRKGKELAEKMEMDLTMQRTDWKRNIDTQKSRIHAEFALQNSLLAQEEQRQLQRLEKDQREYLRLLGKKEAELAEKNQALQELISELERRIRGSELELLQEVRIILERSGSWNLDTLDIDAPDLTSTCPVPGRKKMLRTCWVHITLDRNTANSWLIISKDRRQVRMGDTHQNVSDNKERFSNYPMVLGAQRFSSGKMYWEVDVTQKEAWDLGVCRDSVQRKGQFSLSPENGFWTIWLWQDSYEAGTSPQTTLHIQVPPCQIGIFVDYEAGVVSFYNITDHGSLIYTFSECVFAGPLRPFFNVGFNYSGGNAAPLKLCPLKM
The assay is described as follows: co-IP; endogenous proteins of MC3T3-E1 cells with or without osteogenic induction; lysed by sonication in Western and IP Lysis Buffer; antibodies against YAP1, BCL9, Trim21 or control IgG overnight at 4 °C, protein A agarose, five washes, immunoblotting. (In general: A western blot detects proteins with antibodies after separation by electrophoresis.)

For the next assay, the target named is HA-VC155-Trim21 (UniProt P19474). The assay is described as follows: split reporter; BiFC (Venus VN155/VC155) in HEK293T cells cotransfected with Myc-VN155-YAP1, HA-VC155-Trim21 and HA-cerulean; fixed, confocal microscopy.

Results are given in words; binding and its absence hold for the method and conditions named. In cells and extracts the contact can be indirect. Some entries that bind do so weakly or less than the wild type.

With YAP1 (from UniProt P46938 1-488), the binding entry in assay [1] is given as “binds”. Regarding “Myc-VN155-YAP1 (from UniProt P46937 1-504)”, in the assay with HA-VC155-Trim21, the binding entry was “binds”.

In the case of β-catenin (from UniProt Q02248 1-781), the binding entry in assay [1] is on record as “binds”.
